From paper PMC2772170 (Journal of medicinal chemistry, 2009)

Conditions: human, microsomes, 1 h

N#Cc1c(-c2csc(-c3no[n+]([O-])c3C#N)c2)no[n+]1[O-] [Analogue 35]
Microsomal stability, NADPH (+): 12/52 % remaining
Microsomal stability, NADPH (−): 12/52 % remaining
